Data reported in article PMC1896016.
No constants are given. Whether binding was seen depends on the method and setting. Binding seen in cells or lysates may run through a third protein. Some results given as binding are weak or reduced against the parent protein; the word gives no strength. For some assays here: Where a sequence is shown, tags or fusion partners need not be part of it.

Chains of the proteins cited; added tags and fusions are not shown.
UniProt Q94545: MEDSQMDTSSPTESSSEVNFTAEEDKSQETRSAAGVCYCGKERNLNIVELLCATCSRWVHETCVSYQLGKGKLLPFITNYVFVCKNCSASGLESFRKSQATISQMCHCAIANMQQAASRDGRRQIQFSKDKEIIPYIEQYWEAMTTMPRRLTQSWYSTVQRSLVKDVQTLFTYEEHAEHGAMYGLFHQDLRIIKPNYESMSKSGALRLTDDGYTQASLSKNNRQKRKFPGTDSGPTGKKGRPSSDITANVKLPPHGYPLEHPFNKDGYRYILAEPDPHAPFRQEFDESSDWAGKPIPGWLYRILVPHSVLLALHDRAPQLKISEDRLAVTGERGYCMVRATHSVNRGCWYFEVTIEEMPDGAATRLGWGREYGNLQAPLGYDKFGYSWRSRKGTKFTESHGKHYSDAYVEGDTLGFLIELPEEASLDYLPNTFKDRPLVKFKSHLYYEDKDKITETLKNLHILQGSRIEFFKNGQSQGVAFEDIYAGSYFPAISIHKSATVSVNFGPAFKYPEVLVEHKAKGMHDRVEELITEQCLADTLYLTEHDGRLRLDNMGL

T1: HCF-Flag (host-cell factor, Drosophila), expressed in S2 cells (Drosophila) (UniProt Q9V4C8)
T1 sequence: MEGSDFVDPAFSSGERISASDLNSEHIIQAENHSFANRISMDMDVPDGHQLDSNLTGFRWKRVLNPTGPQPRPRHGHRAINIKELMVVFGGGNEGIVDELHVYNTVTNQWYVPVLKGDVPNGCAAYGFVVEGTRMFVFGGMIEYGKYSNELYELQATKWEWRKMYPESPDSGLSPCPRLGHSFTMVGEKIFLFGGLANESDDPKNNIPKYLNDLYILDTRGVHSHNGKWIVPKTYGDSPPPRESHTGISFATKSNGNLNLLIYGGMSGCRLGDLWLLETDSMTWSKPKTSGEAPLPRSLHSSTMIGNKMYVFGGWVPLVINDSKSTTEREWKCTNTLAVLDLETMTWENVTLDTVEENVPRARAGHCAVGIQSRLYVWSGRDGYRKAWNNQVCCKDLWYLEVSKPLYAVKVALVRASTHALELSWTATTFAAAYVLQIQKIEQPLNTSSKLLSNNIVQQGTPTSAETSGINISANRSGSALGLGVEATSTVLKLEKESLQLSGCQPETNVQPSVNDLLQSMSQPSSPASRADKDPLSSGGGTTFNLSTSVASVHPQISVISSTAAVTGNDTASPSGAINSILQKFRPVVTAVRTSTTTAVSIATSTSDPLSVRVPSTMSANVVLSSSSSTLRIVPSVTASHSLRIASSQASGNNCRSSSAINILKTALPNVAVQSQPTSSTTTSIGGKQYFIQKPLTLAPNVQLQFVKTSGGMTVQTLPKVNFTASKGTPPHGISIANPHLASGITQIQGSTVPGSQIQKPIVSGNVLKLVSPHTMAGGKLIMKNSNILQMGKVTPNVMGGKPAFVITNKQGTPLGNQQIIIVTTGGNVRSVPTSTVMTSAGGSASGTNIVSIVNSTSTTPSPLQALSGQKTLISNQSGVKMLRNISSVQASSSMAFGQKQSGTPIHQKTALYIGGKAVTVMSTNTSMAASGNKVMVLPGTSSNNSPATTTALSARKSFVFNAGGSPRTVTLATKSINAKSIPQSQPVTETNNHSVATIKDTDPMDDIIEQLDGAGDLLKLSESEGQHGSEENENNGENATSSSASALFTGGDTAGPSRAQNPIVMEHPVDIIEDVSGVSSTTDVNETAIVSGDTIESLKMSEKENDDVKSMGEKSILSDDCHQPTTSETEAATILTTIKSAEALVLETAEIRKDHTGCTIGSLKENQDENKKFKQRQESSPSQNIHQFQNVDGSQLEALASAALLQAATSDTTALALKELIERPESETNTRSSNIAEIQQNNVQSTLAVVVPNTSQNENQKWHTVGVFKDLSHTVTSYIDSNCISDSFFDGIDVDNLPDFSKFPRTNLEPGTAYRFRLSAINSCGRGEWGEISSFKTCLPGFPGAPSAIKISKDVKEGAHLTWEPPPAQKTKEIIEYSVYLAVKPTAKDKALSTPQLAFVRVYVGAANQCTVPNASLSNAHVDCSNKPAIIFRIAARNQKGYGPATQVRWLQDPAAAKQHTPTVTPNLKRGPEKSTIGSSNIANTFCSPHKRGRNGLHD


Legend:
[1] = target: T1, HCF-Flag (host-cell factor, Drosophila), expressed in S2 cells (Drosophila); assay: co-IP; S2 cells co-transfected with HCF-Flag and ASH2-V5; anti-Flag M2 beads, blot anti-V5; lysis 50 mM Tris HCl pH 7.4, 150 mM NaCl, 1 mM EDTA, 1% Triton X-100; second wash 300 mM NaCl; 4°C
[2] = target: ASH2-HA (Drosophila), overexpressed in transgenic embryos (Drosophila) (UniProt Q94545); assay: co-IP; extract of 0-16 h transgenic embryos overexpressing ASH2-HA (da-Gal4); anti-HA affinity matrix; 50 mM Tris pH 8, 200 mM NaCl, 5 mM EDTA, 0.5% NP40; wt embryos as negative control

Row | binding [1] | binding [2] | Molecule
1 | binds |  | ASH2-V5 (absent, small or homeotic discs 2, Drosophila), expressed in S2 cells (from UniProt Q94545 1-556)
2 |  | binds | HCF (host-cell factor), endogenous in Drosophila embryos (protein, UniProt Q9V4C8 1-1500) MEGSDFVDPAFSSGERISASDLNSEHIIQAENHSFANRISMDMDVPDGHQLDSNLTGFRWKRVLNPTGPQPRPRHGHRAINIKELMVVFGGGNEGIVDELHVYNTVTNQWYVPVLKGDVPNGCAAYGFVVEGTRMFVFGGMIEYGKYSNELYELQATKWEWRKMYPESPDSGLSPCPRLGHSFTMVGEKIFLFGGLANESDDPKNNIPKYLNDLYILDTRGVHSHNGKWIVPKTYGDSPPPRESHTGISFATKSNGNLNLLIYGGMSGCRLGDLWLLETDSMTWSKPKTSGEAPLPRSLHSSTMIGNKMYVFGGWVPLVINDSKSTTEREWKCTNTLAVLDLETMTWENVTLDTVEENVPRARAGHCAVGIQSRLYVWSGRDGYRKAWNNQVCCKDLWYLEVSKPLYAVKVALVRASTHALELSWTATTFAAAYVLQIQKIEQPLNTSSKLLSNNIVQQGTPTSAETSGINISANRSGSALGLGVEATSTVLKLEKESLQLSGCQPETNVQPSVNDLLQSMSQPSSPASRADKDPLSSGGGTTFNLSTSVASVHPQISVISSTAAVTGNDTASPSGAINSILQKFRPVVTAVRTSTTTAVSIATSTSDPLSVRVPSTMSANVVLSSSSSTLRIVPSVTASHSLRIASSQASGNNCRSSSAINILKTALPNVAVQSQPTSSTTTSIGGKQYFIQKPLTLAPNVQLQFVKTSGGMTVQTLPKVNFTASKGTPPHGISIANPHLASGITQIQGSTVPGSQIQKPIVSGNVLKLVSPHTMAGGKLIMKNSNILQMGKVTPNVMGGKPAFVITNKQGTPLGNQQIIIVTTGGNVRSVPTSTVMTSAGGSASGTNIVSIVNSTSTTPSPLQALSGQKTLISNQSGVKMLRNISSVQASSSMAFGQKQSGTPIHQKTALYIGGKAVTVMSTNTSMAASGNKVMVLPGTSSNNSPATTTALSARKSFVFNAGGSPRTVTLATKSINAKSIPQSQPVTETNNHSVATIKDTDPMDDIIEQLDGAGDLLKLSESEGQHGSEENENNGENATSSSASALFTGGDTAGPSRAQNPIVMEHPVDIIEDVSGVSSTTDVNETAIVSGDTIESLKMSEKENDDVKSMGEKSILSDDCHQPTTSETEAATILTTIKSAEALVLETAEIRKDHTGCTIGSLKENQDENKKFKQRQESSPSQNIHQFQNVDGSQLEALASAALLQAATSDTTALALKELIERPESETNTRSSNIAEIQQNNVQSTLAVVVPNTSQNENQKWHTVGVFKDLSHTVTSYIDSNCISDSFFDGIDVDNLPDFSKFPRTNLEPGTAYRFRLSAINSCGRGEWGEISSFKTCLPGFPGAPSAIKISKDVKEGAHLTWEPPPAQKTKEIIEYSVYLAVKPTAKDKALSTPQLAFVRVYVGAANQCTVPNASLSNAHVDCSNKPAIIFRIAARNQKGYGPATQVRWLQDPAAAKQHTPTVTPNLKRGPEKSTIGSSNIANTFCSPHKRGRNGLHD
